Reference: paper PMC4924684
No constants are given. Whether binding was seen depends on the method and setting. In cells and extracts the contact can be indirect. A yes stands for co-enrichment or nearness to the bait. Other partners may have been found. Where a sequence is shown, tags or fusion partners need not be part of it.

Protein sequences, listed by entry. Tags and fused reporters are not part of them. Residues count along the entry.
UniProt P21127, residues 357-795: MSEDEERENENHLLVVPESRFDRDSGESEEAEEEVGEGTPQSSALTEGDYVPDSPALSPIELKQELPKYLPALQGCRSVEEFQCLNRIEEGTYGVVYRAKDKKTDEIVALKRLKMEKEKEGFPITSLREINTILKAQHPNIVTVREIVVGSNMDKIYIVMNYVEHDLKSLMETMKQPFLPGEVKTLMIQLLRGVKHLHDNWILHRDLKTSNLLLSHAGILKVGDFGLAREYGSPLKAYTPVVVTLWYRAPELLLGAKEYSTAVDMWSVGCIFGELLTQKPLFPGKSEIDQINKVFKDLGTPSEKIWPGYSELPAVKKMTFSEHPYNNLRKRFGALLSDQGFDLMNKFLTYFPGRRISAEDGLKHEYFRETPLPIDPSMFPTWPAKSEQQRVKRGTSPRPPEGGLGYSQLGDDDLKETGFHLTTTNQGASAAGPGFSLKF

Target: T1, GADD45γ-Flag (UniProt O95257)
T1 sequence: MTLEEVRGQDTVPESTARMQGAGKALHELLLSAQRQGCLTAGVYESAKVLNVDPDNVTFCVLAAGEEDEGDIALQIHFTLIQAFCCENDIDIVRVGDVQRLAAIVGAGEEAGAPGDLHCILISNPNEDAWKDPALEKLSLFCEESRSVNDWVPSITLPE
Assay: affinity purification with mass spectrometry; pull-down of GADD45 proteins from HEK 293T cells; eluate on SDS-polyacrylamide gel, prominent bands cut out, trypsin digest, mass spectrometry, ProFound

binding: binds
Substance: CDK11p58 (from UniProt P21127-12 1-439)
